The supplement of paper PMC10849652
Some of the results follow. Residues, ends and D or L forms follow the SMILES beside them. *: point of attachment. Cbz = O=C(OCc1ccccc1)*

By UniProt entry, the sequences of proteins in these tests, tags left out. Where a name states a change or a piece, a line headed by the entry shows the natural chain unless it says otherwise.
UniProt P55327: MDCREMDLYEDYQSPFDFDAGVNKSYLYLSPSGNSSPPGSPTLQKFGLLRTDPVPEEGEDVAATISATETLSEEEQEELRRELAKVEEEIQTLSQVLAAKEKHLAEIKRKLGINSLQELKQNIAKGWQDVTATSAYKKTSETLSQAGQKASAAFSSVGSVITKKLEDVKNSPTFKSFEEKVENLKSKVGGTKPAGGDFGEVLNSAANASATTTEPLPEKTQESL
UniProt Q629K1: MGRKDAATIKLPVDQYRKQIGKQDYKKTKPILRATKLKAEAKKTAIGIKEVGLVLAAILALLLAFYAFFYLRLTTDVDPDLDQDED
UniProt Q9H3S4: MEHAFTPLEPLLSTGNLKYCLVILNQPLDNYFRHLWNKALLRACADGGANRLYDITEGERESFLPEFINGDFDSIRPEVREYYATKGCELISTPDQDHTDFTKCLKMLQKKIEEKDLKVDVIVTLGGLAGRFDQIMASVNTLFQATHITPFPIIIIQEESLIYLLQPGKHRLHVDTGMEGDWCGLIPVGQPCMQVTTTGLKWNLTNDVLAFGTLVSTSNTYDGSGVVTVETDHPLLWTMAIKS
UniProt Q14142: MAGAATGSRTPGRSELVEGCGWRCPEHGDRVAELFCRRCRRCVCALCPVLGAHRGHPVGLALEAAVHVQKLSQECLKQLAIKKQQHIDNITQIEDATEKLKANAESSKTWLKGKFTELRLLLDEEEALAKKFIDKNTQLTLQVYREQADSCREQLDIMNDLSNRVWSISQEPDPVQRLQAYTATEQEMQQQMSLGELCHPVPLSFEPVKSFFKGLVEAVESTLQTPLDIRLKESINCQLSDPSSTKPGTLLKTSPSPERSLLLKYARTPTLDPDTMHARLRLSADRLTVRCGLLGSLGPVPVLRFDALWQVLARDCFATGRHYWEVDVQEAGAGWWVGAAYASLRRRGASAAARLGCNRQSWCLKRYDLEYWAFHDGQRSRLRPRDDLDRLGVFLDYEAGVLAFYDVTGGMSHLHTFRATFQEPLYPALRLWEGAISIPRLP
UniProt Q5T2D2: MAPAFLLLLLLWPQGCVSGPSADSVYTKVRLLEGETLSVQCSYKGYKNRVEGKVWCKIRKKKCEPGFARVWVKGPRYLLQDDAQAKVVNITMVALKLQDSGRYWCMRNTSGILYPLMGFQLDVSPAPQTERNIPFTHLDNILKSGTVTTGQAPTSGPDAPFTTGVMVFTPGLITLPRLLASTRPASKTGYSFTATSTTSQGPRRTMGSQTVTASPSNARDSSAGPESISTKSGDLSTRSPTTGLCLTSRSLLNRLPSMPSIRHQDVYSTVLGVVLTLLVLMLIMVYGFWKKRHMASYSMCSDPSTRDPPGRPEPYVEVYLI
UniProt Q9H496: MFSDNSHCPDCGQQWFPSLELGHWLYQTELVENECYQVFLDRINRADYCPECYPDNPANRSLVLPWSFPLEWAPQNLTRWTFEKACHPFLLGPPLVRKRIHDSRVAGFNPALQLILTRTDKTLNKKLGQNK
UniProt Q9P0U1: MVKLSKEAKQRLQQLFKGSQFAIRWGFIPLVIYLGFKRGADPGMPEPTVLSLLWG
UniProt Q13114: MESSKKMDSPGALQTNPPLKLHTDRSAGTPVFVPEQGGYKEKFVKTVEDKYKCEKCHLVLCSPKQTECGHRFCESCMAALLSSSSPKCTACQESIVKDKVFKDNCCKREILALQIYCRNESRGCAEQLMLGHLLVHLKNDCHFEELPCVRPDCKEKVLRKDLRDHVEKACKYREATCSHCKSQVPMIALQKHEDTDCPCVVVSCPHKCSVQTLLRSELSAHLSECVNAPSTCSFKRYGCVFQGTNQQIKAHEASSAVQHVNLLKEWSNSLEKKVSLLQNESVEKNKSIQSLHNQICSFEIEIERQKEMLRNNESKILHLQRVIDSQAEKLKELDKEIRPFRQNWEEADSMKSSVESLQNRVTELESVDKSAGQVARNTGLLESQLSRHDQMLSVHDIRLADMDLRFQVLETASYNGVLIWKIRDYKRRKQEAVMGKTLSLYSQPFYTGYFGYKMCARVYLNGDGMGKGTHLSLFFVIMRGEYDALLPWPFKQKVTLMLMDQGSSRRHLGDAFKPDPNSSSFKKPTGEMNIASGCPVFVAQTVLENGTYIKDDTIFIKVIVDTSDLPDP
UniProt Q8TD43: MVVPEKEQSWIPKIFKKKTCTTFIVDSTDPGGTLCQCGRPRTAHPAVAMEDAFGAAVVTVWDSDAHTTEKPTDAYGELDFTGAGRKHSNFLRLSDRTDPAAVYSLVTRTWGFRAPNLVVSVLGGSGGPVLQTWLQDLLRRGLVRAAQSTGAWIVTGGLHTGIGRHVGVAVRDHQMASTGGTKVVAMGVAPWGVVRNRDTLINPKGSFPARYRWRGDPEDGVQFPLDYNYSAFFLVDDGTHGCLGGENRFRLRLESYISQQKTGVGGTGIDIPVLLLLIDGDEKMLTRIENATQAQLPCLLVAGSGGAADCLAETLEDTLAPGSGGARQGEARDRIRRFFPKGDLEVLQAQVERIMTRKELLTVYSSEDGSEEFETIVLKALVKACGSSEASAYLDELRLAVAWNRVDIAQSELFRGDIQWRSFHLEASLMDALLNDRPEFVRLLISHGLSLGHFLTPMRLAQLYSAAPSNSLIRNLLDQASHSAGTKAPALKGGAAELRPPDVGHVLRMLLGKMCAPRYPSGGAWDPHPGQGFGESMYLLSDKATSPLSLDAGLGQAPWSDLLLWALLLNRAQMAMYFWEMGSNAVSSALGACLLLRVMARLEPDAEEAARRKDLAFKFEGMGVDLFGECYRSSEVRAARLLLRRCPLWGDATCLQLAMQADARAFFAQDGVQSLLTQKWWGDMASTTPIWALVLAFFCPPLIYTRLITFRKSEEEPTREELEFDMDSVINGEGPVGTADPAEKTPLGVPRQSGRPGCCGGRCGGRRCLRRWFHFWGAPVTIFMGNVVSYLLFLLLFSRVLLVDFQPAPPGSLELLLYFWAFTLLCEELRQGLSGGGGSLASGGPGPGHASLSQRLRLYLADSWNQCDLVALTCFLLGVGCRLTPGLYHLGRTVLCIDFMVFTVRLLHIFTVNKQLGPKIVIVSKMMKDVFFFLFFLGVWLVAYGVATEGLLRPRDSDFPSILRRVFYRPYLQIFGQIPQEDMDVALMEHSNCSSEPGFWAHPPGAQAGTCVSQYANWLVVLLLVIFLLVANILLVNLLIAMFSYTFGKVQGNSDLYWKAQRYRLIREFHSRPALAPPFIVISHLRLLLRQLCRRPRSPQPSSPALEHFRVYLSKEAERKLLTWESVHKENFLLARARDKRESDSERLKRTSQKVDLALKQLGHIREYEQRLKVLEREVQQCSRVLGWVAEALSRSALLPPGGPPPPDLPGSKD
UniProt Q15025: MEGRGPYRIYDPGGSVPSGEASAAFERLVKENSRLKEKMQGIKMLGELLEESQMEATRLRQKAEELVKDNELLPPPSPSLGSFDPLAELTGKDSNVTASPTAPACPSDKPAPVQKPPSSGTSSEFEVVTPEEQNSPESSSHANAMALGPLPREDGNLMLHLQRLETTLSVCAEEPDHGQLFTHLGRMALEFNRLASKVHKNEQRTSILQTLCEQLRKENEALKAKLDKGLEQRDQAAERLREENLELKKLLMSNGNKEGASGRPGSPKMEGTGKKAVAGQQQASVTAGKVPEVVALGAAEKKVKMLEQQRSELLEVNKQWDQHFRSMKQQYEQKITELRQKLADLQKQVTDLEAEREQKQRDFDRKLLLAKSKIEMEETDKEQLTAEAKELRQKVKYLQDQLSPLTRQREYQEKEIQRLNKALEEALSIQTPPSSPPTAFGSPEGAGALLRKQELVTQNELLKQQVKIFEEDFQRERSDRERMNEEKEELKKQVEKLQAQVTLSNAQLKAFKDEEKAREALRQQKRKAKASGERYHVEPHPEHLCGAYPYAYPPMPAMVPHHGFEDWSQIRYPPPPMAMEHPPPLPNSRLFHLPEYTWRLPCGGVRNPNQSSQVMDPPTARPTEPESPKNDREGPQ
UniProt Q6PJ69: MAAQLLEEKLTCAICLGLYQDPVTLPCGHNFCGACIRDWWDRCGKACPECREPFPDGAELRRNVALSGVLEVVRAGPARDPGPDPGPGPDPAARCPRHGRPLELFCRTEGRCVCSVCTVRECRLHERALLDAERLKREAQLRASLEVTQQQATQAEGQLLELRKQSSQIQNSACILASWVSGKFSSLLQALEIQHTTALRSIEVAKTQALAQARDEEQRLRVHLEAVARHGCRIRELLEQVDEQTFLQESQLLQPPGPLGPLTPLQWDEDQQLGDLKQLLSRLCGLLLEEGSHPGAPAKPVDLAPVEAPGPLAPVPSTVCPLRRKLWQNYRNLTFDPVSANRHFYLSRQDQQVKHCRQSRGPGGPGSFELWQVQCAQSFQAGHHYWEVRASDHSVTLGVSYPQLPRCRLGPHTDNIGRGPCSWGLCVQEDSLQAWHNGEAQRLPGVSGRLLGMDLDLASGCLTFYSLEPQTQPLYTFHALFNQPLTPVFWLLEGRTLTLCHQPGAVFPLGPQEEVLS
UniProt O95271: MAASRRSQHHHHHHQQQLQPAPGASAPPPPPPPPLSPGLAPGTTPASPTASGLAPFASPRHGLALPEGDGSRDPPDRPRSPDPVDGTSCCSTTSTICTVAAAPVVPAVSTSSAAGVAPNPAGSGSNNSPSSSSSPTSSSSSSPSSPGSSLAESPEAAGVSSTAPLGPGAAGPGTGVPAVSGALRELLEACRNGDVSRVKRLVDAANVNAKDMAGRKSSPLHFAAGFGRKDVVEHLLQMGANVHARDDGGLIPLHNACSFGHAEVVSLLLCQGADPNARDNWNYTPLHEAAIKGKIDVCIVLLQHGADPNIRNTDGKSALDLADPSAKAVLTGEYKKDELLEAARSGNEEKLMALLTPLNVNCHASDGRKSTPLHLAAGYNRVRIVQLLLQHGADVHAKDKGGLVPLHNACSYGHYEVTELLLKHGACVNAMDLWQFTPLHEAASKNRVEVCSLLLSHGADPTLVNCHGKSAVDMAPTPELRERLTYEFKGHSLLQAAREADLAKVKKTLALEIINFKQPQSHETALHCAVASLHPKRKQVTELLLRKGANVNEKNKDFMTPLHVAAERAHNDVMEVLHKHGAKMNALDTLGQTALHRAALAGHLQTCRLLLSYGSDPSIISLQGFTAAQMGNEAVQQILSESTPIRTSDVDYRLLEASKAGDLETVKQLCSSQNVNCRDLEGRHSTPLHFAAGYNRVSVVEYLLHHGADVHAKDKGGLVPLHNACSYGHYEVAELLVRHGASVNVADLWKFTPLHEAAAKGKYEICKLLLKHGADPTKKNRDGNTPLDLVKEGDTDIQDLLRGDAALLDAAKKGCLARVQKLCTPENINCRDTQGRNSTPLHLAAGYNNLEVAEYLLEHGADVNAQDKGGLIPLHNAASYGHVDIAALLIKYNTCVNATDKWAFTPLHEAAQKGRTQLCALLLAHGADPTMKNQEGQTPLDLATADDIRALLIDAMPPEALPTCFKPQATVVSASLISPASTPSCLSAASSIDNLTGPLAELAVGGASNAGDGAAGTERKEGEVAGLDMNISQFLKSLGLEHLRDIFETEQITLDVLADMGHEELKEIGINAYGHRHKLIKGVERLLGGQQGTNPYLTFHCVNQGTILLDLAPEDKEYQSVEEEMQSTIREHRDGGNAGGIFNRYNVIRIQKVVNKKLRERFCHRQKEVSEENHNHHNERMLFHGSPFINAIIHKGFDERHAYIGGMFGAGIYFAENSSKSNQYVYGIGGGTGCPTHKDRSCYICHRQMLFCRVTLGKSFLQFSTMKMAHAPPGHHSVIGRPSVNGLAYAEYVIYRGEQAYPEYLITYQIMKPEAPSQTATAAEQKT
UniProt Q86TN4: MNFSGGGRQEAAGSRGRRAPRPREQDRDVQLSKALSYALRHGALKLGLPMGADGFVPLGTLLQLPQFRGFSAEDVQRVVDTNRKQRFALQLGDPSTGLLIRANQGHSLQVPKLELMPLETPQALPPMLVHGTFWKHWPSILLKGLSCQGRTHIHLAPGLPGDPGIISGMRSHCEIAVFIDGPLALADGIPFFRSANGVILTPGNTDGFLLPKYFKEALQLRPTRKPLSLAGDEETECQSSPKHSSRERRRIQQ
UniProt O60784, whole entry, looked up: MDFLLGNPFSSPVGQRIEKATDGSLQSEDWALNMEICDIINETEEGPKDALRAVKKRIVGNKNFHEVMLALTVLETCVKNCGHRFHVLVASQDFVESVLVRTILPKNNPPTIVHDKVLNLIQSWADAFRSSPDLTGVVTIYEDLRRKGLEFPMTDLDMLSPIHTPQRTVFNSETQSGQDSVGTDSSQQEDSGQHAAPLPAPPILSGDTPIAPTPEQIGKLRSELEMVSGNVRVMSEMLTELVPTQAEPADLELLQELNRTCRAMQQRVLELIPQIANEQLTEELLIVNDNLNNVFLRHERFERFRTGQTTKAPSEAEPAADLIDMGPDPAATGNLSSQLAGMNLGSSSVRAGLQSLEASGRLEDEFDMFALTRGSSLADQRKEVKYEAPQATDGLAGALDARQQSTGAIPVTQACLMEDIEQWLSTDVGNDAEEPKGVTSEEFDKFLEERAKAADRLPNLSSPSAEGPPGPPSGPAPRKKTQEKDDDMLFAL

Legend:
Assay in all cases: log2 fold change, soluble protein after heating vs DMSO (PISA); higher = thermal stabilisation; K562 cells, 10 uM, 30 min; active = over 0.2 and 3.5 SD of the protein, either way, in both replicates (recomputed)
erlotinib = compound: C#Cc1cccc(Nc2ncnc3cc(OCCOC)c(OCCOC)cc23)c1 [erlotinib]
In short: (§1)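 K562 cells at 2×10^6 cells/mL were treated with 10 μM compound for 30 min. Aliquots were heated for 3 min across 48°C-58°C, pooled, and extracted in PBS with 0.5% NP-40 at 4°C; soluble protein was the supernatant after 21,000xg for 90 min. Soluble protein was quantified by TMTpro 16plex LC-MS/MS with channel sums equalised, and reported as log2 fold change in thermal stability against DMSO controls, with values from duplicates.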

[1] = compound: C/C(=N\NC(=O)C1=CC(=CC=C1)S(=O)(=O)N2CCOCC2)/C3=C(C=CC(=C3)Cl)O
In short: as §1

[2] = compound: C1=CC(=CC=C1C2=NC3=C(N2)C=C(C=C3)C(=O)N)OC4=CC=C(C=C4)Cl
In short: as §1

[3] = compound: C1=CC2=C(C=CC(=C2)/C=C\3/C(=O)NC(=NCC4=CC=CS4)S3)N=C1
In short: as §1

[4] = compound: C1=CC=C(C=C1)C2=NC(=C(N2)C3=CC=NC=C3)C4=CC(=C(C=C4)Cl)O
In short: as §1

[5] = compound: C1=CC=C2C(=C1)C3=NNC4=CC=CC(=C43)C2=O
In short: as §1

[6] = compound: C1CCN(C1)C(=O)NC2=CC=CC(=C2)NC3=NC=C(C(=N3)NCCC4=CN=CN4)Br
In short: as §1

[7] = compound: C1CN(CCC1(CC2=CC=C(C=C2)Cl)N)C3=NC=NC4=C3C=CN4
In short: as §1

IRAK-1-4 Inhibitor I = compound: C1COCCN1CCN2C3=CC=CC=C3N=C2NC(=O)C4=CC(=CC=C4)[N+](=O)[O-] [IRAK-1-4 Inhibitor I]
In short: as §1

[8] = compound: CC(=O)c1cnc2ccc(-c3cc(Cl)c(O)c(Cl)c3)nc2c1N[C@H]1CC[C@H](CN(C)C)CC1
In short: as §1

ralimetinib = compound: CC(C)(C)Cn1c(N)nc2ccc(-c3[nH]c(C(C)(C)C)nc3-c3ccc(F)cc3)nc21 [ralimetinib]
In short: as §1

[9] = compound: CC(C)C1=C2N=C(C=C(N2N=C1)NCC3=CC=CC=C3)NCCCCCCN
In short: as §1

[10] = compound: CC(C)C[C@@H](C=O)NC(=O)[C@H](CC(C)C)NC(=O)[C@H](CC(C)C)NC(=O)OCc1ccccc1
In short: as §1

pinometostat = compound: CC(C)N(C[C@H]1O[C@@H](n2cnc3c(N)ncnc32)[C@H](O)[C@@H]1O)[C@H]1C[C@@H](CCc2nc3cc(C(C)(C)C)ccc3[nH]2)C1 [pinometostat]
In short: as §1

[11] = compound: CC1=C(C2=C(C=C1)C(=O)C3=CC=CC=C3N2CCCN)C
In short: as §1

[12] = compound: C1=CC(=C(C=C1Cl)C2=NC3=NC=CN=C3C(=N2)NC4=CC=NC=C4)F
In short: as §1

[13] = compound: CC(C)(O)CC(=O)NCCn1ccc2ncnc(Nc3ccc(Oc4cccc(C(F)(F)F)c4)c(Cl)c3)c21
In short: as §1

[14] = compound: CC1=C(C(CC(=O)N1)C2=CC=C(C=C2)C(F)(F)F)C(=O)NC3=C(C=C4C(=C3)C=NN4)F
In short: as §1

[15] = compound: C1=CC2=NC=CN=C2C=C1/C=C/3\C(=O)NC(=O)S3
In short: as §1

ibrutinib = compound: C=CC(=O)N1CCC[C@@H](n2nc(-c3ccc(Oc4ccccc4)cc3)c3c(N)ncnc32)C1 [ibrutinib]
In short: as §1

Measured: log2 fold change

TSC1 (UniProt Q92574)
inactive: erlotinib 0.206 | [1] 0.063 | [2] -0.11 | [3] 0.357 | [4] -0.152 | [5] 0.144 | [6] -0.072 | [7] -0.228 | IRAK-1-4 Inhibitor I 0.174 | [8] -0.314 | ralimetinib -0.04 | [9] 0.018 | [10] 0.009 | pinometostat 0.224 | [11] 0.112

TRAF3IP1 (UniProt Q8TDR0)
inactive: [1] 0.008 | [3] -0.049 | [4] -0.033 | [5] 0.118 | IRAK-1-4 Inhibitor I 0.016 | [8] 0.045 | ralimetinib 0.048 | [10] 0.11 | pinometostat 0.093

TPPP3 (UniProt Q9BW30)
inactive: [12] 0.209 | [4] 0.062 | IRAK-1-4 Inhibitor I 0.032 | ralimetinib 0.044 | [13] -0.133 | [10] 0.069 | pinometostat 0.065

TPRG1L (UniProt Q5T0D9)
inactive: erlotinib -0.05 | [12] 0.189 | [2] -0.004 | [4] 0.009 | [6] 0.013 | [7] -0.022 | ralimetinib 0.075 | [13] -0.105 | [9] -0.494 | [10] 0.331 | [14] 0.022 | [11] 0.036

TPD52 isoform 3 (UniProt P55327)
inactive: [15] 0.01 | ibrutinib 0.164

TRIQK (UniProt Q629K1)
inactive: [12] -0.023 | [15] 0.046 | [4] -0.077 | [6] -0.003 | [7] 0.097 | IRAK-1-4 Inhibitor I -0.059 | ibrutinib 0.007 | ralimetinib -0.011 | [13] -0.054 | [10] -0.004 | pinometostat 0.104 | [11] 0.114

TPK1 (UniProt Q9H3S4)
inactive: erlotinib 0.06 | [12] 0.001 | [2] 0.083 | [15] -0.025 | [4] -0.014 | [6] 0.072 | [7] 0.02 | IRAK-1-4 Inhibitor I 0.015 | ibrutinib 0.057 | ralimetinib -0.024 | [13] 0.045 | [9] -0.068 | [10] -0.045 | pinometostat -0.038 | [11] 0.062

TRIM14 (UniProt Q14142)
inactive: [14] 0.019

TRIM27 (UniProt P14373)
inactive: [1] 0.284 | [3] 0.212 | [5] -0.104 | [8] -0.196

TREML2 (UniProt Q5T2D2)
inactive: erlotinib 0.026 | [2] 0.107 | [15] -0.092 | IRAK-1-4 Inhibitor I 0.005 | ibrutinib 0.044 | [9] -0.127 | pinometostat 0.009

TRIM33 isoform 2 (UniProt Q9UPN9)
inactive: [12] -0.254 | [13] -0.144 | [14] 0.031

TOR1AIP2 (UniProt Q9H496)
inactive: [12] 0.089 | [15] 0.181 | [4] -0.074 | ibrutinib -0.055 | ralimetinib -0.031 | [13] 0.088 | [10] 0.165 | [14] 0.042

TOMM7 (UniProt Q9P0U1)
inactive: erlotinib -0.083 | [12] 0.166 | [2] 0.007 | [15] 0.038 | [4] -0.058 | [6] 0.006 | [7] 0.008 | IRAK-1-4 Inhibitor I 0.004 | ibrutinib 0.048 | ralimetinib 0.048 | [13] -0.068 | [9] -0.008 | [10] 0.068 | pinometostat -0.114 | [14] 0.016 | [11] 0.084

TRAF3 (UniProt Q13114)
inactive: [4] 0.03 | ralimetinib 0.13 | [10] -0.12

TRPM4 (UniProt Q8TD43)
inactive: [12] -0.071 | [13] 0.201

TRPS1 isoform 2 (UniProt Q9UHF7)
inactive: erlotinib 0.23 | [2] 0.003 | [9] -0.101

TNXB isoform 4 (UniProt P22105)
inactive: IRAK-1-4 Inhibitor I -0.037 | pinometostat -0.132

TOR1AIP1 (UniProt Q5JTV8)
inactive: [1] -0.003 | [12] 0.181 | [3] -0.026 | [15] 0.004 | [4] -0.032 | [5] -0.001 | IRAK-1-4 Inhibitor I 0.033 | ibrutinib 0.018 | [8] 0.036 | ralimetinib -0.036 | [13] 0.087 | [10] -0.013 | pinometostat -0.063 | [14] 0.13

TNIP1 (UniProt Q15025)
inactive: erlotinib -0.013 | [12] 0.302 | [2] -0.035 | [15] -0.045 | [4] -0.005 | [6] -0.084 | [7] 0 | ibrutinib 0.015 | ralimetinib 0.04 | [13] -0.084 | [9] 0.059 | [10] 0.024 | [11] -0.03

TRIM65 (UniProt Q6PJ69)
inactive: [4] 0.023 | IRAK-1-4 Inhibitor I -0.004 | ralimetinib 0.013 | [10] -0.01 | pinometostat 0.006

Reprinted from the entries so far (five entries):
TRPS1 isoform 2 (UniProt Q9UHF7)
inactive: erlotinib 0.23 | [2] 0.003 | [9] -0.101

TNXB isoform 4 (UniProt P22105)
inactive: IRAK-1-4 Inhibitor I -0.037 | pinometostat -0.132

TOR1AIP1 (UniProt Q5JTV8)
inactive: [1] -0.003 | [12] 0.181 | [3] -0.026 | [15] 0.004 | [4] -0.032 | [5] -0.001 | IRAK-1-4 Inhibitor I 0.033 | ibrutinib 0.018 | [8] 0.036 | ralimetinib -0.036 | [13] 0.087 | [10] -0.013 | pinometostat -0.063 | [14] 0.13

TNIP1 (UniProt Q15025)
inactive: erlotinib -0.013 | [12] 0.302 | [2] -0.035 | [15] -0.045 | [4] -0.005 | [6] -0.084 | [7] 0 | ibrutinib 0.015 | ralimetinib 0.04 | [13] -0.084 | [9] 0.059 | [10] 0.024 | [11] -0.03

TRIM65 (UniProt Q6PJ69)
inactive: [4] 0.023 | IRAK-1-4 Inhibitor I -0.004 | ralimetinib 0.013 | [10] -0.01 | pinometostat 0.006

Later entries:

TRIP12 isoform 3 (UniProt Q14669)
inactive: [12] -0.054 | [15] 0.083 | [4] -0.089 | [6] 0.208 | [7] -0.089 | IRAK-1-4 Inhibitor I -0.12 | ibrutinib -0.107 | ralimetinib -0.134 | [13] 0.171 | [10] 0.027 | pinometostat -0.151 | [14] 0.044 | [11] 0.063

TROAP (UniProt Q12815)
inactive: [12] -0.066 | [15] 0.028 | [4] 0.131 | ibrutinib 0 | ralimetinib 0.408 | [13] -0.033 | [10] 0.189

TNKS (UniProt O95271)
inactive: [1] 0.094 | [3] 0.004 | [5] 0.151 | IRAK-1-4 Inhibitor I -0.536 | [8] -0.096 | pinometostat 0.466

TRPT1 isoform 4 (UniProt Q86TN4)
inactive: erlotinib 0.021 | [1] 0.065 | [2] -0.08 | [3] 0.021 | [4] 0.043 | [5] -0.062 | IRAK-1-4 Inhibitor I 0.11 | [8] -0.057 | ralimetinib 0.011 | [9] -0.054 | [10] 0.074 | pinometostat 0.033

TOM1 (UniProt O60784)
inactive: erlotinib 0.082 | [12] 0.193 | [2] -0.037 | [15] 0.186 | [6] 0.022 | [7] -0.097 | IRAK-1-4 Inhibitor I 0.058 | ibrutinib 0.093 | [13] -0.087 | [9] -0.22 | pinometostat -0.032 | [11] -0.236

TRAPPC6A isoform 2 (UniProt O75865)
inactive: erlotinib 0.02 | [2] 0.04 | [15] -0.415 | ibrutinib -0.047 | [9] -0.149 | [14] -0.029

TNK2 isoform 3 (UniProt Q07912)
inactive: erlotinib 0.102 | [2] 0.07 | [15] -0.105 | ibrutinib 0.108 | [9] 0.109
